The results in this text go back to patent publication US6800296.

Sequences of proteins named here, by UniProt entry; tags and fusion partners are left off. Residues count along the entry.
UniProt P02701, residues 25-152: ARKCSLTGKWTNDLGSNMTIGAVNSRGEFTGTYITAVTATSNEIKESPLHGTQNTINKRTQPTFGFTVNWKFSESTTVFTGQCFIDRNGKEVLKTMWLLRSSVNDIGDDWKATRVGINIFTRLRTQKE

This assay concerns the target avidin (UniProt P02701). The assay is described as follows: confocal fluorescence microscopy; avidin-immobilized PLA-PEG-biotin films exposed to the peptide, washed, then probed with biotin-FITC.

Results are given in words; binding and its absence hold for the method and conditions named. Some results given as binding are weak or reduced against the parent protein; the word gives no strength.

Turning to GGGGGGGGGGGGRGDS (biotin at the N-terminus (printed as biotin-(G)11-GRGDS)) [biotin-(G)11-GRGDS], the binding entry was “binds”.
